In the supplement of paper PMC11006884:
This list holds what a sample rich in targets with a hit left over. The data scatter; read single values as rough. Only a part is listed here, and it is no random draw.

Amino acid sequences for entries named in this document (tags omitted). A change or cut given only in a name is not applied to a line headed by its entry.
UniProt P42166: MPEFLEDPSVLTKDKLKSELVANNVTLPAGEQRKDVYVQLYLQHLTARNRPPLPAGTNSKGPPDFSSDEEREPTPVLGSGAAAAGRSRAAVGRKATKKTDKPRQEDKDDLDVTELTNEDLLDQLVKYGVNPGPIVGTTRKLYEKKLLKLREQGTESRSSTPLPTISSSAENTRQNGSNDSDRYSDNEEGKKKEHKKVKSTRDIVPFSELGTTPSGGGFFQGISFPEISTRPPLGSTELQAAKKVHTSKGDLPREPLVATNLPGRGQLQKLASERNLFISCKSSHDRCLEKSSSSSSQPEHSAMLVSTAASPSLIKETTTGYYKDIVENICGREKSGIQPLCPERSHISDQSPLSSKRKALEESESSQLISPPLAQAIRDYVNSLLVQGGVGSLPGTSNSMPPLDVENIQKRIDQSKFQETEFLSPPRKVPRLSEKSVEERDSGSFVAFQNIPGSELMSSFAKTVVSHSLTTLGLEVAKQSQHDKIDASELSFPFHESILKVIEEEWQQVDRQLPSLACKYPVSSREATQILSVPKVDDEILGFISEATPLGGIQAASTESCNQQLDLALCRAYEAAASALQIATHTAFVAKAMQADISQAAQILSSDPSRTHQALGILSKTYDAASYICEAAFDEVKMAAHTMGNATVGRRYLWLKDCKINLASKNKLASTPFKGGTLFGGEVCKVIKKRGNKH
UniProt P31930: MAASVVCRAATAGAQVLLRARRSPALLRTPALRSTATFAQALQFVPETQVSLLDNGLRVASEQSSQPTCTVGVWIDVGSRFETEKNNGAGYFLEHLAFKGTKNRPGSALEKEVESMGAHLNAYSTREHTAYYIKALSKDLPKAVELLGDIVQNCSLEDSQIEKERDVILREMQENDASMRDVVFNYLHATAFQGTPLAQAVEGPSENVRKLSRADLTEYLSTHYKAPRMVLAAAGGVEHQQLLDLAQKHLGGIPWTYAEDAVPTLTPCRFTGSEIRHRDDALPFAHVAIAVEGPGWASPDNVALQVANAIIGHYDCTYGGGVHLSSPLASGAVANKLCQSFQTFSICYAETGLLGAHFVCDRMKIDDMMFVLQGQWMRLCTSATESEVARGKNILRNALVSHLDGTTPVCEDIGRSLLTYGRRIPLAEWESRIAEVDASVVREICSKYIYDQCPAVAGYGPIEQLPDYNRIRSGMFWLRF
UniProt P31040: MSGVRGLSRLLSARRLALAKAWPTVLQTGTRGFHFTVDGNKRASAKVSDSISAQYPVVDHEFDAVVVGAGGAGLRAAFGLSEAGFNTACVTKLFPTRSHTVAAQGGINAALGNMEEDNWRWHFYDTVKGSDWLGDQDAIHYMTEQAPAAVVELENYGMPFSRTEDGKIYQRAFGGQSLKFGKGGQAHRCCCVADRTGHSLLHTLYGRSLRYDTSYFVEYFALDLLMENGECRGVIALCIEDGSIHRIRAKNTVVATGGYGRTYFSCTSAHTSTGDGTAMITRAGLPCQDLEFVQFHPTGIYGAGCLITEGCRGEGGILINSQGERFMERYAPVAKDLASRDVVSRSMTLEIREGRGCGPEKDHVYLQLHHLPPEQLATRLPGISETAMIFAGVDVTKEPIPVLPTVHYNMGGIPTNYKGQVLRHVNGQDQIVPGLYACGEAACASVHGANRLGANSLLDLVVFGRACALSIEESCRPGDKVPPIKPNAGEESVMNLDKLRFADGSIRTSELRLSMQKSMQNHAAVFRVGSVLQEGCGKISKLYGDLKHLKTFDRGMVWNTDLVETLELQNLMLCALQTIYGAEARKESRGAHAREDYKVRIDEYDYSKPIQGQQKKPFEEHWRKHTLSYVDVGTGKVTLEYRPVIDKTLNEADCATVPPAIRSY
UniProt P35998: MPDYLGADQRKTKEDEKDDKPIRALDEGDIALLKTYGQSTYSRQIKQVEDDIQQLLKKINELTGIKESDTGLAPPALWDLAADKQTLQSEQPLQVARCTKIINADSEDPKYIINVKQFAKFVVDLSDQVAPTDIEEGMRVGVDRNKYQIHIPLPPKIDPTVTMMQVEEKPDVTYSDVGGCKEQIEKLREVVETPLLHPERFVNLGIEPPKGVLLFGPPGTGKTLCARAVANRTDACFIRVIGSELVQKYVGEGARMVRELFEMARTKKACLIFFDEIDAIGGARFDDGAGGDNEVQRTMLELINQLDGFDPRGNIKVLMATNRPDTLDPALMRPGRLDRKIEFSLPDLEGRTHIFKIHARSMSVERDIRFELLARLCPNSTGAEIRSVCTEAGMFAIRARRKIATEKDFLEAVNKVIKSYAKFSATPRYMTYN
UniProt P43243: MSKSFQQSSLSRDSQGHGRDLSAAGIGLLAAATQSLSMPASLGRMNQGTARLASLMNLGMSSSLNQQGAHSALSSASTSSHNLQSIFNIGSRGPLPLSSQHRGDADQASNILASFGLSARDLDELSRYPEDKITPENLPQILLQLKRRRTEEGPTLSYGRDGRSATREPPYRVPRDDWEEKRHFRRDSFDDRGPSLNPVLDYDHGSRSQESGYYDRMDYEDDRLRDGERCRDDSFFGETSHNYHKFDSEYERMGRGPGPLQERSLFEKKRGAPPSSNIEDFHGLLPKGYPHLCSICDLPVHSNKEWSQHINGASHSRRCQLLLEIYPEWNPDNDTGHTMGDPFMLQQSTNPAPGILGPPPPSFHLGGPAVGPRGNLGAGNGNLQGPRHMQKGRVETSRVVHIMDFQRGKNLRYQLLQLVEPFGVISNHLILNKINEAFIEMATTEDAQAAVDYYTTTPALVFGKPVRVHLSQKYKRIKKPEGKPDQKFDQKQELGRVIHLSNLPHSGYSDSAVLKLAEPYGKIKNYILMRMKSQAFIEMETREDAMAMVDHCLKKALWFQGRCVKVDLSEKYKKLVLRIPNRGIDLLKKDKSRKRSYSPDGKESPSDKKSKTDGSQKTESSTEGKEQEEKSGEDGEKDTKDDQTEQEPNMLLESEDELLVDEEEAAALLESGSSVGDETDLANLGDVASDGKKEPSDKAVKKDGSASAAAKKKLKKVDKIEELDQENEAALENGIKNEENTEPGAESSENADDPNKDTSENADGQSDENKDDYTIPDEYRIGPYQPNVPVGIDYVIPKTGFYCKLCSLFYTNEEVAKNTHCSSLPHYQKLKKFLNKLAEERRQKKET
UniProt P31150: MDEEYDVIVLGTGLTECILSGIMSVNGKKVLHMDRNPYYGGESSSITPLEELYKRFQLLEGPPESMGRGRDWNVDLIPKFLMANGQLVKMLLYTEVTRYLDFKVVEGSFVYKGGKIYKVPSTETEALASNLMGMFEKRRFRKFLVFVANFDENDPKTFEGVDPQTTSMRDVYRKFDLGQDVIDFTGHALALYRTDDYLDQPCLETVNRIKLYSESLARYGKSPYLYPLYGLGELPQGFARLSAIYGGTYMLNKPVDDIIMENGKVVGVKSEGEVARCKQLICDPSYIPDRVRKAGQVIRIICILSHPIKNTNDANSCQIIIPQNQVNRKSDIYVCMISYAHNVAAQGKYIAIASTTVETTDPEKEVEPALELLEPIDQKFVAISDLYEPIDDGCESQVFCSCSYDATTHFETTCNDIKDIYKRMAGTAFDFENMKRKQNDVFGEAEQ
UniProt P41252: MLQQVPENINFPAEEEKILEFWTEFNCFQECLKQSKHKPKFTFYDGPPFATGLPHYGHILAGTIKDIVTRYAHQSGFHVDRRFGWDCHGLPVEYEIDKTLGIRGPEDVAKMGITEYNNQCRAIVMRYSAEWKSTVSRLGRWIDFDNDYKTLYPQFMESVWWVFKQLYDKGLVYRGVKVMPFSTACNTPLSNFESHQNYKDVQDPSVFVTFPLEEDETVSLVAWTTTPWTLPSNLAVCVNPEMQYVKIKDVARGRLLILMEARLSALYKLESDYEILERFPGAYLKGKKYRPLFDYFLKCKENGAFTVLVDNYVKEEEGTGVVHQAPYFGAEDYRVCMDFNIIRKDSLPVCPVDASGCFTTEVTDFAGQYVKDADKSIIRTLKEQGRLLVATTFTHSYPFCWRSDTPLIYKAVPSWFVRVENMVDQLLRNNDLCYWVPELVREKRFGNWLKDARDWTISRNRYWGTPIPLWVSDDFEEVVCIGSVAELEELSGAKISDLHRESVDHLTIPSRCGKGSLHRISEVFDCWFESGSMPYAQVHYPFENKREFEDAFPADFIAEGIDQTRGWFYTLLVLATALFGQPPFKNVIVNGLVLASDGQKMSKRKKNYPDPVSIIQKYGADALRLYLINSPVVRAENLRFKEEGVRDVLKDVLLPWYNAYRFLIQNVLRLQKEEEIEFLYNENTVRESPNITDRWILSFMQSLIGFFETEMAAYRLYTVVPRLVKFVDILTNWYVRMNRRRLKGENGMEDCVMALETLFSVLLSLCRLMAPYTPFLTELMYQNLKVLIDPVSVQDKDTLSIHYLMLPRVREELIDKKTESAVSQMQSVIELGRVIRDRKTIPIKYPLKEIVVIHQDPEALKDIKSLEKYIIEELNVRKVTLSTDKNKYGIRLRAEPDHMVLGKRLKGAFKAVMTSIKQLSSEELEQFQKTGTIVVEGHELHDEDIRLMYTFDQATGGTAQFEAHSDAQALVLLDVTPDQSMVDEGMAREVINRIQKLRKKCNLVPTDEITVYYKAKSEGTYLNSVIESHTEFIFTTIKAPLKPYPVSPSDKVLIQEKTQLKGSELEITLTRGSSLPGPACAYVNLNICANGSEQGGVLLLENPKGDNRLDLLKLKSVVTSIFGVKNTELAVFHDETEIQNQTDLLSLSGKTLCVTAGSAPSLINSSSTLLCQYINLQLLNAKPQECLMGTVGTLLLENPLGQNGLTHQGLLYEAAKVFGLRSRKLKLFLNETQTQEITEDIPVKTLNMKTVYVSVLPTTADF
UniProt P33527: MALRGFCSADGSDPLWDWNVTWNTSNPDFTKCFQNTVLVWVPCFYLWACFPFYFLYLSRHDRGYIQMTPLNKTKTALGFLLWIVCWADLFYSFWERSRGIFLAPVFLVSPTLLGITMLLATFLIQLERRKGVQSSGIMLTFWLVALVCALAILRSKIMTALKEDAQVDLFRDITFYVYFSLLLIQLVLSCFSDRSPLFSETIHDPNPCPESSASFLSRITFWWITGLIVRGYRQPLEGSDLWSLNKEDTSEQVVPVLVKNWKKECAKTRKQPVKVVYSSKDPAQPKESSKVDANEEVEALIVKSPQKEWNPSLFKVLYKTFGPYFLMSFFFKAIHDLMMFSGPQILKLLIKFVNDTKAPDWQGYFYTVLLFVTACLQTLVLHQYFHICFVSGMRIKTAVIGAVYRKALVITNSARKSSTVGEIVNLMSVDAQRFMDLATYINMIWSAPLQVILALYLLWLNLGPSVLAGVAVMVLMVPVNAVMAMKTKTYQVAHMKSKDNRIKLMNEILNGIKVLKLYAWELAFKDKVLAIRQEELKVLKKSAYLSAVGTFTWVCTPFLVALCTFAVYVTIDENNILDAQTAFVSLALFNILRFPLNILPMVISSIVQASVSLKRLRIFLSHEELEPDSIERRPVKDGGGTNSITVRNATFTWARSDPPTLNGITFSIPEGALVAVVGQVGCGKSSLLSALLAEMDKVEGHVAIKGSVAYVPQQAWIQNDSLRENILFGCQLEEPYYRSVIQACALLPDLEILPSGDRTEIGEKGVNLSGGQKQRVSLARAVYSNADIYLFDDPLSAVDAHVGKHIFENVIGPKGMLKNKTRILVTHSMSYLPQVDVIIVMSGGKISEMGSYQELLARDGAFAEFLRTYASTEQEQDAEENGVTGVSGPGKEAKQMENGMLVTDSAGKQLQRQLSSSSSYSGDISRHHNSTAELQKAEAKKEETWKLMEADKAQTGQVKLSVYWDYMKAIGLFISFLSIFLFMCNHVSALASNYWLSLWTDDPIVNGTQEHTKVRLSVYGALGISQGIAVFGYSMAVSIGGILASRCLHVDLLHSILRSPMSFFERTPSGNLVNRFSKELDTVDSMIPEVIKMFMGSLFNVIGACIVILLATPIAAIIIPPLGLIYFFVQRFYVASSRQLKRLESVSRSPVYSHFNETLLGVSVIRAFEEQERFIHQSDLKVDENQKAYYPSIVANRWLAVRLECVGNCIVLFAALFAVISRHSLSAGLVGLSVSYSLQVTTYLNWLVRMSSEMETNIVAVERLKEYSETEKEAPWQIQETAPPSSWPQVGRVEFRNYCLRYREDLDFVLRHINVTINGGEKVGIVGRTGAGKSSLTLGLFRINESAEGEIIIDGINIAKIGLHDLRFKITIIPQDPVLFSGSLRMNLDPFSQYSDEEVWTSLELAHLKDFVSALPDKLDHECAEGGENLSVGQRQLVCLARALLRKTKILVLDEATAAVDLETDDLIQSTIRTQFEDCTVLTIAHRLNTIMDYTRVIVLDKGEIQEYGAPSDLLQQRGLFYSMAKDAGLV

compound: COC(=O)/C=C/c1ccccc1 [methyl cinnamate]; assay: log2 ratio of iodoacetamide-alkyne labeling of the cysteine site, DMSO over compound (competition); higher = stronger covalent engagement of the cysteine by the compound, active = 1 or more; conditions: 500 µM; treatment time 1 h; system: HEK293T cell lysate
Summary of the method: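 HEK293T lysate (2 mg/mL) was incubated with electrophile (500 µM) or vehicle for 1 h at ambient temperature and then with iodoacetamide alkyne for 1 h. Labelled proteins were clicked to sCIP-TMT reagents, pooled, digested, enriched on streptavidin and measured by Orbitrap Eclipse LC-MS/MS with FAIMS, with FragPipe quantification. The per-cysteine log2 competition ratio is mean control-channel reporter intensity over mean compound-channel reporter intensity. Across three replicates with duplicate channels, cysteines quantified in only one replicate were excluded.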

log2 ratio of iodoacetamide-alkyne labeling, inactive:
TMPO C561 (UniProt P42166) 0.0482, UQCRC1 C453 (UniProt P31930) 0.0415, SDHA C311 (UniProt P31040) 0.0756, POLR2B C945 (UniProt P30876) 0.172, RPL4 C96 (UniProt P36578) 0.0605, PSMC2 C377 (UniProt P35998) 0.0647, MATR3 C563 (UniProt P43243) 0.199, GDI1 C202 (UniProt P31150) 0.232, STIP1 C461 (UniProt P31948) 0.162, IARS C185 (UniProt P41252) -0.0176, UniProt P36954_C52 0.0654, IARS C400 (UniProt P41252) -0.0419, HSPA9 C317 (UniProt P38646) 0.186, ATIC C363 (UniProt P31939) 0.264, IARS C433 (UniProt P41252) -0.158, TMPO C570 (UniProt P42166) 0.554, FEN1 C163 (UniProt P39748) 0.67, ABCC1 C730 (UniProt P33527) 0.22, MPI C289 (UniProt P34949) 0.299, LRPPRC C208 (UniProt P42704) 0.0712, MDH1 C251 (UniProt P40925) 0.303, RPL4 C3 (UniProt P36578) 0.251
